Values as published with doi:10.1371/journal.pone.0140310, rounded.

Compounds and concentrations:
SNS-032, 0.05 µM: CC(C)(C)c1cnc(CSc2cnc(NC(=O)C3CCNCC3)s2)o1
ZM336372, 10 µM: Cc1ccc(NC(=O)c2cccc(N(C)C)c2)cc1NC(=O)c1ccc(O)cc1
cisplatin, 8 µM: N.N.[Cl][Pt][Cl]
GSK0660, 5 µM: COC(=O)c1sccc1S(=O)(=O)Nc1ccc(Nc2ccccc2)cc1OC
sorafenib, 2 µM: CNC(=O)c1cc(Oc2ccc(NC(=O)Nc3ccc(Cl)c(C(F)(F)F)c3)cc2)ccn1
AS-252424, 5 µM: O=C1NC(=O)/C(=C/c2ccc(-c3ccc(F)cc3O)o2)S1
stibogluconate, 10 µM: O=C(O)[C@@H]1[O][Sb](=[O])([O][Sb]2(=[O])[O][C@H]([C@H](O)CO)[C@H](O)[C@H](C(=O)O)[O]2)[O][C@H]([C@H](O)CO)[C@@H]1O (some centres undefined)
GW441756, 2 µM: Cn1cc(/C=C2\C(=O)Nc3cccnc32)c2ccccc21
darinaparsin, 2 µM: C[As](C)SC[C@H](NC(=O)CC[C@H](N)C(=O)O)C(=O)NCC(=O)O
palbociclib, 0.2 µM: CC(=O)c1c(C)c2cnc(Nc3ccc(N4CCNCC4)cn3)nc2n(C2CCCC2)c1=O

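Human melanoma cell lines in 1,536-well plates were treated with a pair of drugs for 72 h, then fixed, stained and imaged. Values are the share of nuclei positive for cleaved PARP as a percentage of the same share in the DMSO control: 100 is the control level, higher means more apoptosis. Concentrations were fixed for each drug; these are the higher of two levels. No replicate spread is given; individual values may be noisy. Basal and induced levels differ widely between cell lines.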
An unselected part of the screen is shown.
An entry leaves out what has no value listed here.

Pair: GSK0660 and darinaparsin
RVH-421: 250
LB2518-MEL: 79.8
WM1716: 84.3
UACC-257: 51.0
SK-MEL-5: 262
MEL-HO: 95.3
MZ2-MEL: 154
SK-MEL-2: 88.0

Pair: sorafenib and stibogluconate
RVH-421: 25.8
LB2518-MEL: 154
WM1716: 49.1
UACC-257: 77.7
SK-MEL-5: 76.0
MEL-HO: 97.7
MZ2-MEL: 77.9
SK-MEL-2: 105

Pair: AS-252424 and ZM336372
RVH-421: 88.9
LB2518-MEL: 116
WM1716: 59.3
UACC-257: 43.0
SK-MEL-5: 296
MEL-HO: 58.5
MZ2-MEL: 106
SK-MEL-2: 182

Pair: ZM336372 and SNS-032
RVH-421: 81.7
WM1716: 118
UACC-257: 147
SK-MEL-5: 180
MEL-HO: 84.8

Pair: cisplatin and ZM336372
RVH-421: 58.6
LB2518-MEL: 155
WM1716: 110
UACC-257: 96.8
SK-MEL-5: 158
MEL-HO: 77.8
MZ2-MEL: 402
SK-MEL-2: 118

Pair: darinaparsin and SNS-032
RVH-421: 105
LB2518-MEL: 134
WM1716: 554
UACC-257: 55.6
SK-MEL-5: 325
MEL-HO: 78.1
MZ2-MEL: 178
SK-MEL-2: 357

Pair: GSK0660 and stibogluconate
RVH-421: 59.9
LB2518-MEL: 47.7
WM1716: 50.4
UACC-257: 46.9
SK-MEL-5: 436
MEL-HO: 124
MZ2-MEL: 60.0
SK-MEL-2: 71.7

Pair: cisplatin and stibogluconate
RVH-421: 96.9
LB2518-MEL: 101
WM1716: 148
UACC-257: 274
SK-MEL-5: 217
MEL-HO: 82.7
MZ2-MEL: 104
SK-MEL-2: 155

Pair: palbociclib and stibogluconate
RVH-421: 179
LB2518-MEL: 137
WM1716: 54.6
UACC-257: 69.1
SK-MEL-5: 200
MEL-HO: 291
MZ2-MEL: 25.4
SK-MEL-2: 29.4

Pair: SNS-032 and cisplatin
RVH-421: 195
LB2518-MEL: 104
WM1716: 170
UACC-257: 655
SK-MEL-5: 52.1
MEL-HO: 77.7
MZ2-MEL: 133
SK-MEL-2: 108

Pair: GSK0660 and sorafenib
RVH-421: 245
LB2518-MEL: 153
WM1716: 83.9
UACC-257: 76.0
SK-MEL-5: 216
MEL-HO: 135
MZ2-MEL: 38.7
SK-MEL-2: 121

Pair: sorafenib and SNS-032
RVH-421: 46.2
LB2518-MEL: 417
WM1716: 104
UACC-257: 53.6
SK-MEL-5: 187
MEL-HO: 69.2
MZ2-MEL: 296
SK-MEL-2: 393

Pair: cisplatin and darinaparsin
RVH-421: 98.2
LB2518-MEL: 79.4
WM1716: 59.8
UACC-257: 242
SK-MEL-5: 191
MEL-HO: 42.5
MZ2-MEL: 52.7
SK-MEL-2: 105

Pair: GSK0660 and ZM336372
RVH-421: 248
LB2518-MEL: 74.4
WM1716: 108
UACC-257: 49.2
SK-MEL-5: 178
MEL-HO: 53.2
MZ2-MEL: 68.2
SK-MEL-2: 103

Pair: cisplatin and sorafenib
RVH-421: 172
LB2518-MEL: 125
WM1716: 85.1
UACC-257: 826
SK-MEL-5: 103
MEL-HO: 48.3
MZ2-MEL: 194
SK-MEL-2: 136

Pair: sorafenib and GW441756
RVH-421: 163
LB2518-MEL: 53.1
WM1716: 14.9
UACC-257: 72.0
SK-MEL-5: 41.1
MEL-HO: 248
MZ2-MEL: 67.5
SK-MEL-2: 42.3

Pair: AS-252424 and GSK0660
RVH-421: 90.8
LB2518-MEL: 62.7
WM1716: 69.6
UACC-257: 42.9
SK-MEL-5: 30.4
MEL-HO: 117
MZ2-MEL: 235
SK-MEL-2: 86.5

Pair: palbociclib and SNS-032
RVH-421: 235
LB2518-MEL: 112
WM1716: 34.1
UACC-257: 43.1
SK-MEL-5: 355
MEL-HO: 76.1
MZ2-MEL: 63.2
SK-MEL-2: 165

Pair: GW441756 and darinaparsin
RVH-421: 231
WM1716: 89.4
UACC-257: 58.7
SK-MEL-5: 128
MEL-HO: 97.2
SK-MEL-2: 67.3

Pair: palbociclib and darinaparsin
RVH-421: 134
LB2518-MEL: 49.5
WM1716: 69.3
UACC-257: 53.9
SK-MEL-5: 165
MEL-HO: 92.8
MZ2-MEL: 50.7
SK-MEL-2: 34.4

Pair: cisplatin and GSK0660
RVH-421: 102
LB2518-MEL: 51.1
WM1716: 71.1
UACC-257: 69.1
SK-MEL-5: 188
MEL-HO: 226
MZ2-MEL: 213
SK-MEL-2: 44.1

Pair: ZM336372 and darinaparsin
RVH-421: 68.5
LB2518-MEL: 131
WM1716: 92.1
UACC-257: 329
SK-MEL-5: 79.1
MEL-HO: 80.9
MZ2-MEL: 58.3
SK-MEL-2: 122

Pair: palbociclib and sorafenib
RVH-421: 442
LB2518-MEL: 219
WM1716: 113
UACC-257: 28.0
SK-MEL-5: 83.8
MEL-HO: 91.8
MZ2-MEL: 153
SK-MEL-2: 41.1

Pair: sorafenib and ZM336372
RVH-421: 32.5
LB2518-MEL: 105
WM1716: 51.6
UACC-257: 41.2
SK-MEL-5: 157
MEL-HO: 68.9
MZ2-MEL: 193
SK-MEL-2: 23.6

Pair: palbociclib and GW441756
RVH-421: 160
LB2518-MEL: 209
WM1716: 101
UACC-257: 71.7
SK-MEL-5: 133
MEL-HO: 91.3
MZ2-MEL: 68.5
SK-MEL-2: 26.5

Pair: AS-252424 and cisplatin
RVH-421: 207
LB2518-MEL: 68.5
WM1716: 72.4
UACC-257: 292
SK-MEL-5: 155
MEL-HO: 188
MZ2-MEL: 192
SK-MEL-2: 73.1

Pair: SNS-032 and GSK0660
RVH-421: 89.6
LB2518-MEL: 77.7
WM1716: 146
UACC-257: 59.2
SK-MEL-5: 279
MEL-HO: 97.3
MZ2-MEL: 165
SK-MEL-2: 290

Pair: SNS-032 and AS-252424
RVH-421: 48.7
LB2518-MEL: 84.7
WM1716: 28.3
UACC-257: 9.8
SK-MEL-5: 183
MEL-HO: 101
MZ2-MEL: 155
SK-MEL-2: 69.4

Pair: palbociclib and cisplatin
RVH-421: 118
LB2518-MEL: 87.4
WM1716: 205
UACC-257: 52.0
SK-MEL-5: 72.1
MEL-HO: 62.6
MZ2-MEL: 120
SK-MEL-2: 120

Pair: sorafenib and darinaparsin
RVH-421: 151
LB2518-MEL: 90.0
WM1716: 139
UACC-257: 84.0
SK-MEL-5: 484
MEL-HO: 156
MZ2-MEL: 102
SK-MEL-2: 122

Pair: stibogluconate and GW441756
RVH-421: 79.2
LB2518-MEL: 98.9
WM1716: 102
UACC-257: 33.0
SK-MEL-5: 49.4
MEL-HO: 115
MZ2-MEL: 42.6
SK-MEL-2: 14.7

Pair: palbociclib and AS-252424
RVH-421: 39.2
LB2518-MEL: 67.5
WM1716: 48.5
UACC-257: 113
SK-MEL-5: 107
MEL-HO: 201
MZ2-MEL: 44.2
SK-MEL-2: 85.2

Pair: GSK0660 and palbociclib
RVH-421: 593
LB2518-MEL: 42.4
WM1716: 48.5
UACC-257: 46.9
SK-MEL-5: 291
MEL-HO: 102
MZ2-MEL: 36.3
SK-MEL-2: 14.6

Pair: GW441756 and ZM336372
RVH-421: 156
LB2518-MEL: 323
WM1716: 114
UACC-257: 16.3
SK-MEL-5: 36.7
MEL-HO: 295
MZ2-MEL: 94.4
SK-MEL-2: 46.7

Pair: cisplatin and GW441756
RVH-421: 181
LB2518-MEL: 240
WM1716: 107
UACC-257: 80.9
SK-MEL-5: 312
MEL-HO: 210
MZ2-MEL: 125
SK-MEL-2: 79.4

Pair: GW441756 and GSK0660
RVH-421: 43.4
LB2518-MEL: 164
WM1716: 63.0
UACC-257: 28.9
SK-MEL-5: 100
MEL-HO: 93.1
MZ2-MEL: 62.4
SK-MEL-2: 131

Pair: ZM336372 and palbociclib
RVH-421: 86.7
LB2518-MEL: 70.2
WM1716: 201
UACC-257: 89.1
SK-MEL-5: 102
MEL-HO: 38.2
MZ2-MEL: 149
SK-MEL-2: 144

Pair: SNS-032 and stibogluconate
RVH-421: 95.4
LB2518-MEL: 114
WM1716: 77.6
UACC-257: 66.2
SK-MEL-5: 44.0
MEL-HO: 73.7
MZ2-MEL: 207
SK-MEL-2: 212

Pair: GW441756 and AS-252424
RVH-421: 44.9
LB2518-MEL: 135
WM1716: 92.7
UACC-257: 21.6
SK-MEL-5: 168
MEL-HO: 57.6
MZ2-MEL: 65.0
SK-MEL-2: 54.3

Once more, the final 5:

Pair,RVH-421,LB2518-MEL,WM1716,UACC-257,SK-MEL-5,MEL-HO,MZ2-MEL,SK-MEL-2
cisplatin and GW441756,181,240,107,80.9,312,210,125,79.4
GW441756 and GSK0660,43.4,164,63.0,28.9,100,93.1,62.4,131
ZM336372 and palbociclib,86.7,70.2,201,89.1,102,38.2,149,144
SNS-032 and stibogluconate,95.4,114,77.6,66.2,44.0,73.7,207,212
GW441756 and AS-252424,44.9,135,92.7,21.6,168,57.6,65.0,54.3